Measurements taken from publication PMC4657044, “Live detection and purification of cells based on the expression of a histone chaperone, HIRA, using a binding peptide” (Scientific Reports, 2015).
No constants are given. Whether binding was seen depends on the method and setting. Some entries that bind do so weakly or less than the wild type. For some of these results: Sequences can lack the tags named with a protein.

By UniProt entry, the sequences of proteins in these tests, tags left out.
UniProt Q61666: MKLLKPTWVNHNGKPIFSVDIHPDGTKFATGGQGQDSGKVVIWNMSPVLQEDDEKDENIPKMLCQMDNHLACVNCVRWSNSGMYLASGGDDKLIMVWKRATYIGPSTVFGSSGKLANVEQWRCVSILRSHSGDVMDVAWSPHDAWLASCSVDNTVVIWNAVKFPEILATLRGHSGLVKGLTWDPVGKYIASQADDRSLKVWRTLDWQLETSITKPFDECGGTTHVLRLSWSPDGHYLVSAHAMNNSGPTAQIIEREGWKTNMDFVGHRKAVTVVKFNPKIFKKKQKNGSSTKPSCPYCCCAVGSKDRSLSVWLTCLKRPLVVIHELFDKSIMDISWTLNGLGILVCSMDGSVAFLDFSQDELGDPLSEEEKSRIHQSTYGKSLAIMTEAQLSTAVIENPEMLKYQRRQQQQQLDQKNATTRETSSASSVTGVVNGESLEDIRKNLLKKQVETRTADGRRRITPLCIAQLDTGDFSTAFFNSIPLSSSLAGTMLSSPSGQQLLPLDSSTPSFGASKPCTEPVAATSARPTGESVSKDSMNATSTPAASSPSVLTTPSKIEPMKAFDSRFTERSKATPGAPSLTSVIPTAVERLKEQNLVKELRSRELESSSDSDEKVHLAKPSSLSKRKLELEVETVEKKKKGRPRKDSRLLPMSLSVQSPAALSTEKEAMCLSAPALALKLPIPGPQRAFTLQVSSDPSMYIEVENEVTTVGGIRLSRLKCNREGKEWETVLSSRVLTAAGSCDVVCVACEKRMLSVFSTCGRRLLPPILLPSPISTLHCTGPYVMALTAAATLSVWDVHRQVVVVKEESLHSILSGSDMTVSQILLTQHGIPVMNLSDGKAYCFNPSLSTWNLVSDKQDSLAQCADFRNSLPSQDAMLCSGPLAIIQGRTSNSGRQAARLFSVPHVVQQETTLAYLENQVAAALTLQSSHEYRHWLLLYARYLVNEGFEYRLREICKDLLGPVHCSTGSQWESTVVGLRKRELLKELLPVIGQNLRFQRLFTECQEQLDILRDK
UniProt P54198: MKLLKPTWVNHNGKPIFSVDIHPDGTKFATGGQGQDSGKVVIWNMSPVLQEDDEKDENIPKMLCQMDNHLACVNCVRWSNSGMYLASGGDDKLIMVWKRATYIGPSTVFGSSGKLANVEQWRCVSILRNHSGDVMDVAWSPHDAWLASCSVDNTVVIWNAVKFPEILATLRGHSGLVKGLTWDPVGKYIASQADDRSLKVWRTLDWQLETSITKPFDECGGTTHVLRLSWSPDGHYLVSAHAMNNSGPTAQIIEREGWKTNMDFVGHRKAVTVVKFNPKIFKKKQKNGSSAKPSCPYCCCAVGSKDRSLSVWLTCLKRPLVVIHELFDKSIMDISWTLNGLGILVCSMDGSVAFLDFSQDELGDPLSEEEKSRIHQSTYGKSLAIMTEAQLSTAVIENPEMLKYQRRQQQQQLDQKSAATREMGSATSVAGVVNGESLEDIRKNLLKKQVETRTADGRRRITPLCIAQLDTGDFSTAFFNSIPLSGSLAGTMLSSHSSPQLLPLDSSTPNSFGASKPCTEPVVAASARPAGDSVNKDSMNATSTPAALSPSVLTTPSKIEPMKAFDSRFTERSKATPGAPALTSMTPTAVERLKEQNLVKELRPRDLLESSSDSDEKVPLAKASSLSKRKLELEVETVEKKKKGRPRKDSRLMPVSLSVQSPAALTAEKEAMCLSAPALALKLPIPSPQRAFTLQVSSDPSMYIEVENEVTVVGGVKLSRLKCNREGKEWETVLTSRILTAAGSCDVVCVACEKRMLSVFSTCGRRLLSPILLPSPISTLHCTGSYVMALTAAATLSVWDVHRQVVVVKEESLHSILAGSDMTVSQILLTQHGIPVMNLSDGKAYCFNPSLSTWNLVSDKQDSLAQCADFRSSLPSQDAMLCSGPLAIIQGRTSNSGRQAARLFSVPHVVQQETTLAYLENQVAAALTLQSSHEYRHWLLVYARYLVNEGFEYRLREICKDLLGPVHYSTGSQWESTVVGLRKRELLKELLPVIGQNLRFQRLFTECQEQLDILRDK

Tests used:
[1] = target: HIRA (histone chaperone), mouse (mouse (endogenous in W9.5 ES cells)) (UniProt Q61666); experiment: fluorescence microscopy of live cells; live cells grown in confocal dishes, stained with TM2-FITC diluted in PBS, briefly washed and imaged; wild type against Hira-/- ES cells; only the binder purified
[2] = target: HIRA (histone chaperone), human (human (endogenous in HSC-4)) (UniProt P54198); experiment: flow cytometry on cells; live cells resuspended in 75 ul PBS containing TM2-FITC for one hour, diluted with 200 ul PBS, analysed or sorted at once on FACS Aria II; no permeabilisation; Hira-/- ES cells as control; only the binder purified
[3] = target: HIRA (histone chaperone), mouse (mouse (endogenous in W9.5 ES cells)) (UniProt Q61666); experiment: as above
[4] = target: HIRA (histone chaperone), human (human (endogenous in HSC-4)) (UniProt P54198); experiment: far-Western, overlay or dot blot; RIPA lysates of oral cancer cell lines resolved by 10% SDS-PAGE, transferred to nitrocellulose; biotin-tagged peptide (2 uM) used instead of primary antibody, detected with streptavidin-HRP and ECL; only the binder purified

| binding [1] | binding [2] | binding [3] | binding [4] | Binder |
| --- | --- | --- | --- | --- |
| binds | binds | binds | – | PKKGSKKAVTKAQKKDGA (C-terminal amide; FITC (site not stated)) [TM2-FITC] |
| – | – | – | binds | PKKGSKKAVTKAQKKDGA (C-terminal amide; biotin (site not stated)) [biotin-tagged TM2 peptide] |
